US20140065154A1, “TLR3 BINDING AGENTS” (INNATE PHARMA, priority 2011, published 2014)
Residue numbers refer to the chain shown, from its start. These are yes or no findings as the source states them, for the method shown. Some binding calls cover weakened binding; strength is not graded here. Blank lines part the entries; values can stand above or below the binder they belong to.

The chains behind the UniProt entries cited, without tags or fusion partners. Where a name states a change or a piece, a line headed by the entry shows the natural chain unless it says otherwise.
UniProt O15455: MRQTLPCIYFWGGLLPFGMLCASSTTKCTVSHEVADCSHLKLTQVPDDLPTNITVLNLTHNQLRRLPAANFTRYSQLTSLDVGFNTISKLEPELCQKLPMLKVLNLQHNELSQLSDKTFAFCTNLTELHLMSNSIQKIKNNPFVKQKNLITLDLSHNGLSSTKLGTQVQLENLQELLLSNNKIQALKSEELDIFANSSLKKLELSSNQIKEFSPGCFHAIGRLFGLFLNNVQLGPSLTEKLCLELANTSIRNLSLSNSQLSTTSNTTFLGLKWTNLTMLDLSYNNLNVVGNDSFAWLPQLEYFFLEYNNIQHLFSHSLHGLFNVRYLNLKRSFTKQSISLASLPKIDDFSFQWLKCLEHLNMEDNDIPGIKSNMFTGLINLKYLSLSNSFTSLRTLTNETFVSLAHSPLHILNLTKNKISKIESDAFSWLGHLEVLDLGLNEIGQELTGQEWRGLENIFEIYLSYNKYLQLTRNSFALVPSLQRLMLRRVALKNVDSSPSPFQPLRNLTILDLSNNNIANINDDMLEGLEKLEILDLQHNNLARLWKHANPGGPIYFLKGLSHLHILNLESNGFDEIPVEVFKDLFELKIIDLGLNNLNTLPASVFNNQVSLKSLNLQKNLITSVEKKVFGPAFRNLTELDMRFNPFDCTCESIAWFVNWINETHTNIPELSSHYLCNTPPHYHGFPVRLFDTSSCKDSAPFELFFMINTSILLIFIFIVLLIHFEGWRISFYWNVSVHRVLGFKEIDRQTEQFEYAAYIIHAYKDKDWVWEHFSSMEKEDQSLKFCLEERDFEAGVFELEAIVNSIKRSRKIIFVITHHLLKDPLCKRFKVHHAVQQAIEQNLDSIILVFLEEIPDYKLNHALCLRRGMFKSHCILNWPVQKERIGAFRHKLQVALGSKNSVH

How the values were obtained:
[1] = target: recombinant human TLR3 extracellular domain (R&D Systems) (human) (UniProt O15455); assay: SPR, human TLR3 chip previously incubated with polyAU (FIG. 10A legend)
[2] = target: recombinant human TLR3 extracellular domain (R&D Systems) (human) (UniProt O15455); assay: SPR, TLR3 chip with or without previous incubation with polyAU (FIG. 9 legend)
[3] = target: recombinant human TLR3 extracellular domain (R&D Systems) (human) (UniProt O15455); assay: SPR (Biacore T100) at pH 5.6 (10 mM sodium acetate, 150 mM NaCl, 0.05% P20): rhTLR3 chip, polyAU 100 µg/ml or buffer first, then antibody 50 µg/ml for 2 min
[4] = target: recombinant human TLR3 extracellular domain (R&D Systems) (human) (UniProt O15455); assay: SPR on rhTLR3 chip, neutral pH 7.2
[5] = target: recombinant human TLR3 extracellular domain (R&D Systems) (human) (UniProt O15455); assay: SPR, pH 5.6, human TLR3 chip previously incubated with polyAU
[6] = target: recombinant human TLR3 extracellular domain (R&D Systems) (human) (UniProt O15455); assay: SPR competition (Biacore T100) in acidic buffer pH 5.6: rhTLR3 chip saturated with 31C3 (50 µg/ml) or not, then test antibody 50 µg/ml for 2 min
[7] = target: recombinant human TLR3 extracellular domain (R&D Systems) (human) (UniProt O15455); assay: SPR, pH 5.6, rhTLR3 chip first saturated with polyAU
[8] = target: recombinant human TLR3 extracellular domain (R&D Systems) (human) (UniProt O15455); assay: SPR (Biacore): rhTLR3 chip, 34A3 injected after buffer or after saturation of the chip with 31C3
[9] = target: recombinant human TLR3 extracellular domain (R&D Systems) (human) (UniProt O15455); assay: ELISA, hybridoma supernatant on His-tagged recombinant TLR3 coated on Ni-NTA plates
[10] = target: recombinant human TLR3 extracellular domain (R&D Systems) (human) (UniProt O15455); assay: SPR (Biacore T100, 25 C): recombinant human TLR3 immobilised on a CM5 chip, antibody 10 µg/ml injected for 2 min in HBS-EP+ (neutral pH)
[11] = target: recombinant human TLR3 extracellular domain (R&D Systems) (human) (UniProt O15455); assay: SPR binding analysis on rhTLR3 chip, neutral pH, antibody 10 µg/ml
[12] = target: recombinant human TLR3 extracellular domain (R&D Systems) (human) (UniProt O15455); assay: SPR competition (Biacore T100) in acidic buffer pH 5.6: rhTLR3 chip saturated with the first antibody (50 µg/ml) or given buffer, then second antibody 50 µg/ml for 2 min

binding [1]: binds | binding [2]: binds | binding [3]: binds | binding [4]: binds | binding [5]: binds | binding [6]: binds | binding [7]: binds
B1: antibody 28F11 (antibody, V domains shown)
VH: EVQLQQSGPELVKPGASVKISCKASGYSFTGYYIHWVKQSHVKSLEWIGRINPYYGATSYNQNFKDKANLTVDKSSSTAYMELHSLTSDDSAVYYCARSTKLGYLDYWGQGTTLTVS
VL: DIQMTQSPASLSASVGETVTITCRASENIYSNLAWYQQKQGKSPQLLIYNAKTLAEGVPSRFSGSGSGTQYFLKINSLQPEDFGSYYCQHHYGTPFTFGGGTKLEIK

binding [1]: binds | binding [2]: binds | binding [3]: binds | binding [4]: binds | binding [5]: binds | binding [6]: binds | binding [7]: binds
B2: antibody 23C8 (antibody, V domains shown)
VH: EVQLQQSGPELVKPGASVKISCKASGYSFTGYFMHWVKQSHVKSLEWIGRINPYNGATSYNQNFKDKASLTVDKSSSTSYMELHSLTSEDSAVYYCVRDDGGNYPFDYWGQGTTLTVS
VL: B1 VL with N32Y, I48V, N50Y, S67T, Y71F, F72S, F96Y
notes: also called 23C8.4

binding [2]: binds | binding [3]: binds | binding [8]: binds | binding [4]: binds | binding [9]: binds | binding [7]: binds
B3: antibody 34A3 (antibody, V domains shown)
VH: EIQLQQSGPELVKPGASVKVSCKASGYVFTTYSIYWVKQSHGKSLEWIGYIDPYNGDTSYNQKFKGKATLTVDKSSSTAYMHLNSLTSEDSTVYYCAREGNYYGYFDYWGQGTTLTVS
VL: QIVLTQSPALMSASPGEKVTMTCSASSSVSYMFWYQQKPRSSPKPWIYLTSNLASGVPARFSGSGSGTSYSLTISSMEAEDAATYYCQQWTGNPPTFGGGTKLEIK
notes: Mouse hybridoma antibody (Balb/c, immunization series #2); also called 34A3.5; printed 34A4, 32A4 and 34A2 in some places

binding [10]: binds | binding [1]: binds | binding [2]: binds | binding [3]: binds | binding [11]: binds | binding [12]: binds | binding [4]: binds | binding [5]: binds | binding [7]: binds
B4: antibody 29H3 (antibody, V domains shown)
VH: DVQLQESGPDLVKPSQSLSLTCTVTGYSITSGYSWHWIRQFLGNKLEWMGYIHYSGITNYNPSLRSRISFTRDTSKNQFFLQLNSVTTEDTATYYCARDGYYGMDYWGQGTSVTVS
VL: DIVMTQSQKFMSTSVGDRVSITCKASQNVRTSVAWYQQKPGQSPKALIYLASNRHTGVPDRFTGSGSGTDFTLTVSNIQSEDLADYFCLQHWNYPYTFGGGTKLEIK
notes: also called 29H3.7; CNCM I-4187
